# Measurements reported in PubChem BioAssay AID1671195 (Yale University, 2021).
# Purpose: 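Genes whose knockdown alters LDL uptake in liver cancer cells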 (primary screen)
# Cell system: human Huh7 hepatoma cells
# Reagent: siRNA pool against human genes, 18 nM
# Timing: about 2 to 2.5 days of knockdown, then 8 h LDL uptake
# Conditions: DiI-labelled LDL at 30 µg/ml for 8 h, in lipoprotein-deficient serum medium
# Read-out: 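Per-cell DiI-LDL intensity by automated imaging; well means scaled to the plate median and given as a robust z-score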
# Reading the numbers: robust z-score: higher = more LDL uptake after knockdown
# Active means: 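Active when two or more replicates show a robust z-score above 2 or below -2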
# The whole screen tested about 22,000 reagents; below is an unselected part. About 1,510 of all reagents (6.9%) were called active. 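Active includes knockdowns raising or lowering LDL uptake; positive z-scores mean more uptake, negative mean less.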 Entries without a mark were called inactive. The numbers tell different reagents against one gene apart.
target gene,reagent no.,"robust z-score, replicate 1","robust z-score, replicate 2","robust z-score, replicate 3"
TMEM92 (transmembrane protein 92),1,-0.748,0.608,-0.744
ARMH3 (armadillo like helical domain containing 3),1,-0.00512,0.48,0.445
LOC389624 (retired record),1,-0.157,0.0873,-0.0807
HBQ1 (hemoglobin subunit theta 1),1,0.398,-1.58,-3.23
LOC284379,1,0.498,0.561,0.914
LOC730133,1,0.808,0.481,-0.201
MPZL3 (myelin protein zero like 3),1,0.203,-0.356,-0.769
POLR2J (RNA polymerase II subunit J),1,-1,-1.52,-0.959
DCAF4L1 (DDB1 and CUL4 associated factor 4 like 1),1,0.329,0.481,0.571
LINC01550 (long independently transcribed non-coding RNA 1550),1,-0.45,-0.324,-0.59
ATOSB (atos homolog B),1,1.17,0.588,0.489
PSMF1 (proteasome inhibitor subunit 1),1,0.323,0.553,-0.687
CALHM5 (calcium homeostasis modulator family member 5),1,0.861,0.997,0.782
KLF9 (KLF transcription factor 9),1,-0.93,-0.705,-0.734
LOC440314 (retired record),1,0.638,0.137,0.71
GALNT16 (polypeptide N-acetylgalactosaminyltransferase 16),1,-1.46,0.677,-1.51
FBXW10 (F-box and WD repeat domain containing 10),1,2.08,0.858,0.445
FMO1 (flavin containing dimethylaniline monoxygenase 1),1,0.388,1.45,0.975
KYAT1 (kynurenine aminotransferase 1),1,-0.903,-0.38,-0.602
LOC441787 (retired record),1,-1.07,-1.33,-1.07
OR2M4 (olfactory receptor family 2 subfamily M member 4),1,1.08,1.16,-0.205
UFD1 (ubiquitin recognition factor in ER associated degradation 1),1,0.394,-0.242,-1.14
APEX1 (apurinic/apyrimidinic endodeoxyribonuclease 1),1,2.44,1.16,1.25
GAS1 (growth arrest specific 1),1,0.0534,-0.0908,-0.419
ATP5F1A (ATP synthase F1 subunit alpha),1,-0.564,-0.762,-0.515
OSGIN2 (oxidative stress induced growth inhibitor family member 2),1,0.644,0.137,2.36
"MBTPS2 (membrane bound transcription factor peptidase, site 2)",1,-1.3,-1.11,-1.11
PAPSS1 (3'-phosphoadenosine 5'-phosphosulfate synthase 1),1,-0.448,-1.18,-0.346
LOC221140 (retired record),1,3.57 (active),2.64,3.31
TNFRSF12A (TNF receptor superfamily member 12A),1,0.754,0.0675,1.38
DAZAP2P1 (DAZ associated protein 2 pseudogene 1),1,0.0761,0.281,-0.0165
RAX (retina and anterior neural fold homeobox),1,-0.455,0.979,0.872
CEP350 (centrosomal protein 350),1,2.38 (active),2.82,0.932
PRADC1 (protease associated domain containing 1),1,2.71 (active),2.71,2.25
TUSC7 (tumor suppressor candidate 7),1,2.37 (active),2.75,2.03
PTGIR (prostaglandin I2 receptor),1,-1.22,-1.5,-1.28
ACSS1 (acyl-CoA synthetase short chain family member 1),1,-0.151,-0.121,0.0411
DLG5 (discs large MAGUK scaffold protein 5),1,-0.148,-0.171,-0.27
CTSK (cathepsin K),1,1.27,0.153,0.696
LOC440135 (retired record),1,-0.625,-0.818,-0.265
GNPDA1 (glucosamine-6-phosphate deaminase 1),1,-1.34,-1.22,-1.07
IKZF2 (IKAROS family zinc finger 2),1,0.622,0.0411,0.779
IL17RC (interleukin 17 receptor C),1,1.06,1.7,1.11
KRTDAP (keratinocyte differentiation associated protein),1,-0.0729,-0.154,0.2
GALNT6 (polypeptide N-acetylgalactosaminyltransferase 6),1,-0.589,1.57,-0.142
NXPE3 (neurexophilin and PC-esterase domain family member 3),1,-0.135,-1.13,-0.699
CHAD (chondroadherin),1,-2.59 (active),-2.45,-2.03
"ZNF598 (zinc finger protein 598, E3 ubiquitin ligase)",1,-1.24,-1.01,-0.988
LANCL3 (LanC like family member 3),1,0.101,-0.282,-0.714
TRIQK (triple QxxK/R motif containing),1,0.289,0.163,-0.0671
"POLA1 (DNA polymerase alpha 1, catalytic subunit)",1,-1.6,-2.17,-1.64
H2AC13 (H2A clustered histone 13),1,-1.61,0.51,-1.2
ROCK1 (Rho associated coiled-coil containing protein kinase 1),1,-1.26,-1.6,-1.78
LOC387871 (retired record),1,4.04 (active),3.02,3.69
SEMA6C (semaphorin 6C),1,-1.15,0.355,-1.69
BMPR2 (bone morphogenetic protein receptor type 2),1,-0.85,-1.71,-0.378
MAPK14 (mitogen-activated protein kinase 14),1,-0.12,0.501,0.382
ACVRL1 (activin A receptor like type 1),1,1.97 (active),2.24,2.35
NEUID (neuronal identity associated lncRNA),1,1.25,0.258,0.407
INO80B (INO80 complex subunit B),1,-1.12,-1.51,-1.27
LINC03034 (long independently transcribed non-coding RNA 3034),1,0.655,0.516,0.135
CNTFR (ciliary neurotrophic factor receptor),1,-0.769,-0.0575,-0.385
HIGD1B (HIG1 hypoxia inducible domain family member 1B),1,3.55 (active),3.15,-0.142
DPPA2 (developmental pluripotency associated 2),1,-0.197,0.744,-0.601
PNPLA4,1,0.349,0.356,1.69
"RAB29 (RAB29, member RAS oncogene family)",1,-0.322,-0.686,-0.458
ID3 (inhibitor of DNA binding 3),1,-0.878,-0.562,-1.1
LINC02210 (long independently transcribed non-coding RNA 2210),1,0.68,0.641,0.234
LINC02210 (long independently transcribed non-coding RNA 2210),2,0.601,-0.447,0.676

4 entries already listed, ordered by “robust z-score, replicate 2”, lowest first.
target gene,reagent no.,"robust z-score, replicate 1","robust z-score, replicate 2","robust z-score, replicate 3"
"POLA1 (DNA polymerase alpha 1, catalytic subunit)",1,-1.6,-2.17,-1.64
"ZNF598 (zinc finger protein 598, E3 ubiquitin ligase)",1,-1.24,-1.01,-0.988
LANCL3 (LanC like family member 3),1,0.101,-0.282,-0.714
TRIQK (triple QxxK/R motif containing),1,0.289,0.163,-0.0671
